Data: patent US20220267288A1, “CARDIAC THERAPEUTIC” (priority 2019, published 2022)

How the values were obtained:
dogs = test: Electrophysiological variables (AERP, VERP, repolarization periods) in halothane-anesthetized dogs; assay type: in vivo, dog; details: 3 mg/kg, 60 min after administration
Procedure: Animals were obtained through Kitayama Labes Co., Ltd. (Nagano, Japan). All experiments were approved by the Toho University Animal Care and User Committee (No. 18-51-395) and performed according to the Guideline for the Care and Use of Laboratory Animals of Toho University.
The dogs were initially anesthetized with thiopental sodium (30 mg/kg, i.v.). After intubation with a cuffed endotracheal tube, anesthesia was maintained by inhalation of halothane (1% v/v) vaporized in oxygen with a volume-limited ventilator (SN-480-3; Shinano Manufacturing Co., Ltd., Tokyo, Japan). Tidal volume and respiratory rate were set at 20 mL/kg and 15 breaths/min, respectively. […]
The lead II electrocardiogram was obtained from the limb electrodes. The P-wave duration, PR interval, QRS width and QT interval were measured, and QT interval was corrected with Van de Water's formula: QTc=QT-0.087×(RR-1,000) with RR given in ms. The J-Tpeak and Tpeak-Tend were measured as follows. […]
A standard 6-French, quad-polar electrodes catheter (Cordis-Webster Inc., Baldwin Park, Calif., USA) was positioned at the non-coronary cusp of the aortic valve through the left femoral artery to obtain the His bundle electrogram. […] The duration of the MAP signals was measured as an interval, along a horizontal line corresponding to the diastolic baseline, from the MAP upstroke to the desired repolarization level. […]

CYP2J2 = target: T1, CYP2J2 (Homo sapiens, UniProt P51589); test: Inhibition of CYP2J2-mediated astemizole metabolism in hiPSC-CM; assay type: cell-based; set-up: endogenous in cells; host or cells: hiPSC-CM (from human foreskin fibroblasts); details: 2 μM drug co-incubated with 1 μM astemizole, 24 h
T1 sequence (P51589 1-502): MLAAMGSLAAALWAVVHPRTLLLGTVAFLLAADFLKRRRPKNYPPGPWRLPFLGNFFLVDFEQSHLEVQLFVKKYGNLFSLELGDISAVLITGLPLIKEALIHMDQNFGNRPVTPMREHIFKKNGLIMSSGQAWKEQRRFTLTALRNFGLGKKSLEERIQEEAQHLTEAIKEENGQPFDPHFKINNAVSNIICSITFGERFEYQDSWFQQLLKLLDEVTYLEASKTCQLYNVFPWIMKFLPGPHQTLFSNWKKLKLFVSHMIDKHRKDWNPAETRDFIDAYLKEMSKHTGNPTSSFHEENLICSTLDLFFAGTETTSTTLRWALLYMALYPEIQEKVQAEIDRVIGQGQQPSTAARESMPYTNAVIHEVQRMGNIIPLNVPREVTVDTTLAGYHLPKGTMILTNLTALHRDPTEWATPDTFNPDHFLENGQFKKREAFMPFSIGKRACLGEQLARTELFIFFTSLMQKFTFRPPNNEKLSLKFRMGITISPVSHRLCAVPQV
Procedure: Human foreskin fibroblasts were reprogrammed to form human induced pluripotent stem cells (hiPSC) using viral-free method. hiPSC cell lines were differentiated to cardiomyocytes (hiPSC-CM) as reported previously^1. […] were seeded at a density 100,000 cell/well in a 12-well plate and differentiated for 30 days. […] The cells were then washed with 1×PBS twice and dislodged using Accutase® cell detachment solution. The cells were then pelleted at 2000 g for 10 min at 4° C. […] The cells were sonicated for 15 min on ice to bring about complete cell lysis. The lysate was centrifuged at 10,000×g for 15 min at 4° C. The supernatant was collected and analyzed using LC/MS/MS. The LC/MS/MS system consisted of an Agilent 1290 Infinity ultra-high pressure liquid chromatography (UPLC) system (Agilent Technologies Inc., Santa Clara, Calif.) interfaced with the AB SCIEX QTRAP® 5500 tandem mass spectrometry (MS/MS) system (AB SCIEX, Framingham, Mass.). The LC/MS/MS system was controlled by Analyst 1.4.2 software (Applied Biosystems) which performed all chromatographic peak integration. The ACQUITY UPLC BEH C18 column, 1.7 μM, 2.1×50 mm (Waters, Milford, Mass.), was used to achieve chromatographic separation. The temperatures of the column and samples were maintained at 45° C. and 4° C. respectively. […]

## CCCCc1oc2ccccc2c1C(=O)c1cc(I)c(OCCN(CC)CC)c(I)c1 [Amiodarone]
dogs
  Atrial selectivity (ΔAERP/ΔVERP): 3.6
CYP2J2
  inhibition of CYP2J2 in hiPSC-CM: Lack of inhibition
